Measured values as given in US8709981B2, “Isolated Australian coral reef fluorescent proteins and cell-based kinase or phosphatase platforms for cancer drug development” (priority 2009, dated 2014).

System: HEK-293 cells
Test: Expression in mammalian cells
Type: cell-based

B1: PhosFluor: fluorescent protein having the amino acid sequence set forth in SEQ ID NO: 10, isolated from Scleractinia (protein)
chain: MSAHIKPNMKIKLRMEGDVNGHPFVITGEGSGKPYEGTHAIDLKVKEGGPLPFAYDILTAAFQYGNRAFTKYPADIPDYFKQSFPDGYCWERSMVFEDQGICVVKSVISLDKKEPDCFNYDIRFYGVNFPATGPVMKKKTVKWEPSTQTMYERDGVLVGDVNMALLLEGGGHHRCDFKSTYRAKGVVLNMPGNHYVDHRIEIIHHDKGYNSVTVHESAEARHCSLPSKAK
modifications: Scleractinia sp
With B1 the “stable expression in HEK-293 cells” value (cells selected for stable transfection, 3 weeks later) was “still stably expressed” and the “fluorescence in HEK-293 cells” value (five days post-transfection) was “Fluorescence was observed”.
